Data from PMC6156083.
Results are given in words; binding and its absence hold for the method and conditions named. Binding seen in cells or lysates may run through a third protein. Binding can be weak; no strength is given.

Amino acid sequences for entries named in this document (tags omitted). A change or cut given only in a name is not applied to a line headed by its entry.
UniProt O15260: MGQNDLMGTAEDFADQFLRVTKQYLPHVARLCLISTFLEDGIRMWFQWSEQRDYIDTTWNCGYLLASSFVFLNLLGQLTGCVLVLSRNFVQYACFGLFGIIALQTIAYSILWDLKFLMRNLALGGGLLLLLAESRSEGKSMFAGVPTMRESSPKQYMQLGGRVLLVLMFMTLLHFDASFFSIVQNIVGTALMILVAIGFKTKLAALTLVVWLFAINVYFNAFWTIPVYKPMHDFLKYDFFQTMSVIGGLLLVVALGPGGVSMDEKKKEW
UniProt Q8NBP7: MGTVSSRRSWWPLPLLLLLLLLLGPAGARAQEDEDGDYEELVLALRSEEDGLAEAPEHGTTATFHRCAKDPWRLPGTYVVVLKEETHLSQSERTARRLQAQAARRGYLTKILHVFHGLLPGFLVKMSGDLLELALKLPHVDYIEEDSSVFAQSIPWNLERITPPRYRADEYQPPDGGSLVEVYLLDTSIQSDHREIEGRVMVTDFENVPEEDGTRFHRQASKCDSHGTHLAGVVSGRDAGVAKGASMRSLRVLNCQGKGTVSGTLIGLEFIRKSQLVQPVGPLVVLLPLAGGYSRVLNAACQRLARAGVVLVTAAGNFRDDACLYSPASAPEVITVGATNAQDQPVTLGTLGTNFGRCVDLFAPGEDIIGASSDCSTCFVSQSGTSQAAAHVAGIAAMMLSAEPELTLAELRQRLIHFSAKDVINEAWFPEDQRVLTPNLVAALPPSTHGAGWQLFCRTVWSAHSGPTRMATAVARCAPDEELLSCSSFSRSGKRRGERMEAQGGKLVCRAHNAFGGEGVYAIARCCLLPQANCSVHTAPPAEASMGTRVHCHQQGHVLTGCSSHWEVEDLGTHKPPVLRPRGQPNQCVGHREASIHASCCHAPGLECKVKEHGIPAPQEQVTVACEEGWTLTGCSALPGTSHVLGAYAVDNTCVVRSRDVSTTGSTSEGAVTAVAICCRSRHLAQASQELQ

Molecular target: SURF4 with an N-terminal FLAG epitope tag (human) (UniProt O15260)
Test: co-IP; cells cross-linked with 2 mM dithiobis(succinimidyl propionate) in PBS with 2 mM CaCl2, lysed in 50 mM Tris-HCl, 150 mM NaCl, 2 mM CaCl2, 1.0% Triton X-100, pH 7.5; immunoprecipitation with M2-FLAG affinity gel or GFP-trap magnetic beads, 4°C overnight, 5 washes; immunoblot

Substance: PCSK9-eGFP fusion (from UniProt Q8NBP7)
- binding: binds
